# Assay results as given in patent publication US10603296B1, “Compositions and methods for diagnosis and treatment of neuromuscular disorders” (United States of America as represented by the Secretary of …, priority 2019, dated 2020).
# Legend:
# [1] = Serum metabolite levels (global metabolomics) in Navy dolphins on modified fish diet; type: in vivo, Bottlenose dolphins (Tursiops truncatus); details: 2 h postprandial serum
# Protocol: The above miR-29C hypothesis was tested in a study. This study examined the ability to identify small molecules in the dolphin serum that, when raised, independently predicted desired changed levels of microRNA targets for neuromuscular disorders. To do this, a modified, wild-type fish diet (“Modified Diet”, see FIG. 1A) was fed to 20 Navy dolphins in netted enclosures within San Diego Bay. The Modified Diets of the 20 Navy dolphins were modified from a 75% capelin (plus 25% mix of squid, herring or mackerel) baseline diet, (“Baseline Diet”, FIG. 1B), to a diet consisting of 25% capelin, 50% mullet, and 25% mix of squid, herring, or mackerel, FIG. 1A, while maintaining the same kilocalories. […] Blood samples from this study archived at −80° C. were submitted for global metabolomics and microRNA readouts. A total of 120 archived serum samples from this study were analyzed for small molecules using global metabolomics. Briefly, serum extracts were prepared and analyzed using three methods: ultrahigh performance liquid chromatography-tandem mass spectroscopy (UPLC-MS/MS) with positive ion mode electrospray ionization (ESI), UPLC-MS/MS with negative ion mode ESI, and hydrophilic interaction liquid chromatography (UPLC-MS/MS). […] Peaks were quantified using area-under-the-curve. […]
# [2] = Serum metabolite levels, Sarasota Bay wild dolphins compared to Navy dolphins; type: in vivo; details: 38 wild Sarasota Bay dolphins vs 26 Navy dolphins (355 samples), Welch's t-test
# Protocol: To test this additional hypothesis, routine, fasted serum samples collected throughout 26 Navy dolphins' lifespans and archived at −80° C. were submitted for global metabolomics. The sample set targeted one sample for each dolphin's year of life, resulting in 355 samples for the study with paired clinical pathology data. In addition, single serum samples from 38 healthy wild dolphins living in Sarasota Bay, Fla. were included in the sample set. Methodology for metabolomics analyses were the same as described under Example 1 described above. Welch's two-sample t-tests were performed to compare metabolite quantities between Navy dolphins and wild dolphins, and a P value≤0.05 was used to define significance.
SMILES,increase of serum level on modified diet [1],"serum level, wild dolphins relative to Navy dolphins [2]"
CC(=O)NCCc1c[nH]cn1 [N-acetylhistamine],5 fold,8.93 times higher
CCCCCCCCCCCCC(O)C(=O)O (stereo not shown) [2-hydroxymyristate],50%,1.23 times higher
